Consider 3 molecules from publication PMC8599840.

Amino acid sequences for entries named in this document (tags omitted).
UniProt P29351: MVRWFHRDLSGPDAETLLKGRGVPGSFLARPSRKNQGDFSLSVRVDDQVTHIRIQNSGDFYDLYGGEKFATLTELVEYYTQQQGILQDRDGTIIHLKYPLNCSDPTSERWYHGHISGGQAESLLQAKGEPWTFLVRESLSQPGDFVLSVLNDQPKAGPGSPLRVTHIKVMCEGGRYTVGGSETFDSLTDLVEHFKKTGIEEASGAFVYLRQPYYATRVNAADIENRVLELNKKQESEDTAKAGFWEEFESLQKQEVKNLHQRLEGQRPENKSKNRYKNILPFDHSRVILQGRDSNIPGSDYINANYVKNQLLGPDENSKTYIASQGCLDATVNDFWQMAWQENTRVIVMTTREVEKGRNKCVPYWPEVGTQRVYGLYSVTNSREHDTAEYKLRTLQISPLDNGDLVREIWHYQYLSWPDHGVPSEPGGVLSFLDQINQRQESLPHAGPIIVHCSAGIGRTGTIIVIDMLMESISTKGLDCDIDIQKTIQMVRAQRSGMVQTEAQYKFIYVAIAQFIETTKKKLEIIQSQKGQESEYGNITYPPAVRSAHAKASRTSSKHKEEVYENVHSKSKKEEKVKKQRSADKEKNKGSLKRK

T1: IL-10 receptor α (mouse (endogenous in J774A.1)) (UniProt Q61727)
T1 sequence: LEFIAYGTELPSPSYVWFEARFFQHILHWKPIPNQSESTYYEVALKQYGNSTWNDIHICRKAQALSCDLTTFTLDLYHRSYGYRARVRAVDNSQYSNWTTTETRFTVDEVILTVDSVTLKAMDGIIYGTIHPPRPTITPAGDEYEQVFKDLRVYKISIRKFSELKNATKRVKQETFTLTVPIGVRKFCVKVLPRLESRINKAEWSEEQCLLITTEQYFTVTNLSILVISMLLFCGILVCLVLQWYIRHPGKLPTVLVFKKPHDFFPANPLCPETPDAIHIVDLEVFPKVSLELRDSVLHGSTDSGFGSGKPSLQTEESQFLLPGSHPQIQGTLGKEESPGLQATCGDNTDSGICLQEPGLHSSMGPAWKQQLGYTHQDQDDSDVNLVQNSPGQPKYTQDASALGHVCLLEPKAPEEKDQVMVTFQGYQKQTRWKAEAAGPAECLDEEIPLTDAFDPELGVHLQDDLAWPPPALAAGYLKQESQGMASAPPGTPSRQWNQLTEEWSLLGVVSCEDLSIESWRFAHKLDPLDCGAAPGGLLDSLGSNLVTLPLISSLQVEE

B1: Src homology-2-containing inositol 5'-phosphatase 1 (enzyme, UniProt Q9ES52 1-1191)
chain: MPAMVPGWNHGNITRSKAEELLSRAGKDGSFLVRASESIPRAYALCVLFRNCVYTYRILPNEDDKFTVQASEGVPMRFFTKLDQLIDFYKKENMGLVTHLQYPVPLEEEDAIDEAEEDTVESVMSPPELPPRNIPMSAGPSEAKDLPLATENPRAPEVTRLSLSETLFQRLQSMDTSGLPEEHLKAIQDYLSTQLLLDSDFLKTGSSNLPHLKKLMSLLCKELHGEVIRTLPSLESLQRLFDQQLSPGLRPRPQVPGEASPITMVAKLSQLTSLLSSIEDKVKSLLHEGSESTNRRSLIPPVTFEVKSESLGIPQKMHLKVDVESGKLIVKKSKDGSEDKFYSHKKILQLIKSQKFLNKLVILVETEKEKILRKEYVFADSKKREGFCQLLQQMKNKHSEQPEPDMITIFIGTWNMGNAPPPKKITSWFLSKGQGKTRDDSADYIPHDIYVIGTQEDPLGEKEWLELLRHSLQEVTSMTFKTVAIHTLWNIRIVVLAKPEHENRISHICTDNVKTGIANTLGNKGAVGVSFMFNGTSLGFVNSHLTSGSEKKLRRNQNYMNILRFLALGDKKLSPFNITHRFTHLFWLGDLNYRVELPTWEAEAIIQKIKQQQYSDLLAHDQLLLERKDQKVFLHFEEEEITFAPTYRFERLTRDKYAYTKQKATGMKYNLPSWCDRVLWKSYPLVHVVCQSYGSTSDIMTSDHSPVFATFEAGVTSQFVSKNGPGTVDSQGQIEFLACYATLKTKSQTKFYLEFHSSCLESFVKSQEGENEEGSEGELVVRFGETLPKLKPIISDPEYLLDQHILISIKSSDSDESYGEGCIALRLETTEAQHPIYTPLTHHGEMTGHFRGEIKLQTSQGKMREKLYDFVKTERDESSGMKCLKNLTSHDPMRQWEPSGRVPACGVSSLNEMINPNYIGMGPFGQPLHGKSTLSPDQQLTAWSYDQLPKDSSLGPGRGEGPPTPPSQPPLSPKKFSSSTANRGPCPRVQEARPGDLGKVEALLQEDLLLTKPEMFENPLYGSVSSFPKLVPRKEQESPKMLRKEPPPCPDPGISSPSIVLPKAQEVESVKGTSKQAPVPVLGPTPRIRSFTCSSSAEGRMTSGDKSQGKPKASASSQAPVPVKRPVKPSRSEMSQQTTPIPAPRPPLPVKSPAVLQLQHSKGRDYRDNTELPHHGKHRQEEGLLGRTAMQ
B2: protein tyrosine phosphatase 1B (enzyme, UniProt P35821 1-432)
chain: MEMEKEFEEIDKAGNWAAIYQDIRHEASDFPCKVAKLPKNKNRNRYRDVSPFDHSRIKLHQEDNDYINASLIKMEEAQRSYILTQGPLPNTCGHFWEMVWEQKSRGVVMLNRIMEKGSLKCAQYWPQQEEKEMVFDDTGLKLTLISEDVKSYYTVRQLELENLTTKETREILHFHYTTWPDFGVPESPASFLNFLFKVRESGSLSLEHGPIVVHCSAGIGRSGTFCLADTCLLLMDKRKDPSSVDIKKVLLEMRRFRMGLIQTADQLRFSYLAVIEGAKFIMGDSSVQDQWKELSREDLDLPPEHVPPPPRPPKRTLEPHNGKCKELFSSHQWVSEETCGDEDSLAREEGRAQSSAMHSVSSMSPDTEVRRRMVGGGLQSAQASVPTEEELSSTEEEHKAHWPSHWKPFLVNVCMATLLATGAYLCYRVCFH

No constants are given. Whether binding was seen depends on the method and setting. In cells and extracts the contact can be indirect. Some results given as binding are weak or reduced against the parent protein; the word gives no strength.

In the assay the target is T1, IL-10 receptor α (mouse (endogenous in J774A.1)). The experiment in a line: co-IP; J774A.1 cells treated with or without mIL-10 (10 ng/mL) and S1PC (100, 300, 1000 µM) for 1 h; RIPA lysates incubated 1 h at RT with anti-IL-10Rα antibody on Dynabeads Protein G; washed 3 times with PBS; immunoblot. (A western blot detects proteins with antibodies after separation by electrophoresis.)
“SH2-containing protein tyrosine phosphatase-1 (from UniProt P29351 1-595) (enzyme)”: the binding entry is “binds”.

On to B1, for which the binding result is listed as “binds”.

B2: the binding result is given as “binds”.
